In publication PMC4622077:
These are yes or no findings as the source states them, for the method shown. Some entries that bind do so weakly or less than the wild type.

Amino acid sequences for entries named in this document (tags omitted).
UniProt P24385: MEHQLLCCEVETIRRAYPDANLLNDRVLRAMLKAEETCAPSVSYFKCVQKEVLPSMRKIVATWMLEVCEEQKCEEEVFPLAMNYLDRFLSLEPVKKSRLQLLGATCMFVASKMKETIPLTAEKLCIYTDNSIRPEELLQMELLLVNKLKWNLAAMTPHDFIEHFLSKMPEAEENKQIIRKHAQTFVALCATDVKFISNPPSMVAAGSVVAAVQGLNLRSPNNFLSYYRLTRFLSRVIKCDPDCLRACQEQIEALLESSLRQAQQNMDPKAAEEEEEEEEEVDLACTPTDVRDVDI

Biological target: T1, Cyclin-Dependent Kinase 4 (UniProt P30285)
T1 sequence: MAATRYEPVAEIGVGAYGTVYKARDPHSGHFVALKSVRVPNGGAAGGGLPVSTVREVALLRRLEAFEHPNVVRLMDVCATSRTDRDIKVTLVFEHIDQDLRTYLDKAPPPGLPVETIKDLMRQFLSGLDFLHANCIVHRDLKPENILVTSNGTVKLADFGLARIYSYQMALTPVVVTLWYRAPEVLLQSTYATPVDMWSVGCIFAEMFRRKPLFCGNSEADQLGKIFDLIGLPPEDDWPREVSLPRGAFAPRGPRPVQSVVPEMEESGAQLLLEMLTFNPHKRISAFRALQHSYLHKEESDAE
Assay: AlphaScreen or HTRF; classical HTRF between tagged CycD1 and tagged CDK4, read with donor and acceptor antibodies; lysates in HTRF lysis buffer (Tris 10 mM, EDTA 1 mM, 0.05% NP-40), 384-well plate

In the case of “Tagged Cyclin D1 protein (from UniProt P24385 1-295)”, the binding is reported as “binds”.
